104 sequences from PubChem BioAssay AID1347423 (Functional Genomics Laboratory (NCATS/FGL), 2020) can be followed below.

Hit rate of the full screen: of about 52,000 sequences, about 210 (0.4%) were called active.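 How the source made its calls: active means gene whose silencing raises cell survival under the drug, median off-target-corrected z-score across its silencing RNAs 2 or more; inactive means the rest.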 This is one part of the list.

A short description of the experiment: Resistance to Poly (ADP-Ribose) Polymerase inhibitor: Gene Identification via Genome-wide siRNA Screen. Particulars: mouse BRCA2 R2336H ES cells, olaparib, CellTiter-Glo viability; stronger effect = higher value. In short, it runs like this: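 Genome-wide siRNA screen (3 siRNAs/gene, 20 nM) in mouse ES cells carrying hypomorphic BRCA2 R2336H; olaparib 500 nM added 48 h post-transfection, CellTiter-Glo viability 72 h later. Normalized to plate-median negative control; MAD z-scores, gene median, seed-adjusted.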
(In general: In ATP-based viability assays light output follows the ATP content of the culture.)
Take “GGGAAAUGAACCUCUCUGATT against 3110049J23Rik”: the z-score is inactive: -1.88.

With CCGAGAGGUUUAAGGUCUCTT against Nsg1, the z-score is inactive: -0.861.

For GCCUGAUGGACCAUGUUUATT against C80638, the z-score was inactive: -0.642.

Turning to GGAAGUGUGCCUAUUUGUGTT against Nte, the z-score was inactive: -0.364.

Consider GCCCAGACUACCAUGCUUATT against LOC433481, for which the z-score is inactive: 0.614.

With GCAAUUACCAGUAUGCUACTT against Tbx19, the z-score was inactive: 0.857.

Take GGUUCUUGGUUUACAUAAGTT against Slc39a12: the z-score was inactive: -2.03.

As to GGUAGAUAACCUGAUUUAUTT against Slc7a6, the z-score is inactive: 0.444.

GGAAUUACUGGCCUGGGUATT against Nox3: the z-score was inactive: -0.756.

In the case of GCAACAGUUGGUCUAAAAUTT against Psma1, the z-score was inactive: 1.51.

Regarding “GGACAACAUACGAUAUUCATT against 1700052H20Rik”, the z-score is inactive: -1.46.

As for GGAGCUGUCUAAUCAUAAUTT against Clasp2, the z-score was inactive: -0.614.

On to GGAGUUACGUAGAACUACCTT against Adam25, for which the z-score is inactive: 0.0384.

In the case of GGAGUUGAAAGGAGUGAGCTT against Igsf4c, the z-score was inactive: 0.353.

With GGUAGCAGAGCAGCUUAUUTT against Vmd2l1, the z-score is inactive: -0.75.

For the sequence UUAUUCUCACUGGUUUGUATT against Olfr746, the z-score was inactive: 0.621.

CCAGUUUGAUGGUAGACAATT against T2bp: the z-score was inactive: 0.665.

GCUCGAUCCCUCUUUCAUCTT against Mpst: the z-score was inactive: -0.607.

CCCUAGAAUUGCUACAGUCTT against Tcea1: the z-score is inactive: 0.489.

As for GGCUCAGCUAGAGGUUUCUTT against Ugt1a13, the z-score is inactive: -1.23.

Take GGGAGUAUUACCUCCUUCATT against Igbp1b: the z-score is inactive: -1.37.

In the case of GGUACUUUACACUGAACAATT against Serpinb13, the z-score was inactive: 0.739.

In the case of GCUAAAAGGCUACGGGAGUTT against Bhlhb4, the z-score is inactive: -1.15.

Turning to GGAAAAUCCAGAGGUACGUTT against Kcnj6, the z-score was inactive: 2.35.

GGGUGGAGUAUUUUUCUUGTT against Ube2d2: the z-score was inactive: -0.345.

As for GCUUGUCUACUUCCUAGAUTT against Rnpep, the z-score is inactive: 0.623.

On to CUCCUUGUCUACCUGAAUATT against V1rh6, for which the z-score is inactive: 0.542.

With GGAAAGUGCCCUCCACACUTT against Lgi4, the z-score is inactive: -0.415.

Regarding GGACUAUUAGAUUCCAGCATT against Wnt6, the z-score is inactive: -1.83.

For GGAAAAGGAGAUAUCCAGCTT against Bag5, the z-score is inactive: -0.0381.

As to CGAGUCAAAAUCGAAUGAUTT against BC020002, the z-score is inactive: -0.955.

As to GCAGUUCGUAGUAUUUGAATT against B4galt1, the z-score was inactive: -0.331.

In the case of GCUACUCUACUGAACAGAATT against Olfr472, the z-score was inactive: 1.71.

Regarding “GGGACUUGAUCUCCUGAGUTT against 1110033F04Rik”, the z-score was inactive: 0.344.

Regarding GGCUUAAUUGCUAGCCAAGTT against Slc7a13, the z-score was inactive: -0.212.

CCUUCUGUUAGCCAAUAUATT against Tnmd: the z-score was inactive: -1.64.

Regarding GGGCUUCUUUGACCUCAUCTT against Kdelr1, the z-score is inactive: 0.491.

As to GGUGUUGGUUGAGAACUUCTT against Tbxas1, the z-score is inactive: -0.727.

For the sequence “GGUUCUCAGAGCUUGUAGATT against 6720455I24Rik”, the z-score is inactive: 0.819.

For CCAGAUCAGCAAUAUCAAATT against Lasp1, the z-score is inactive: 1.36.

With GGCUACGCAAACAGUUUGGTT against Actn1, the z-score is inactive: 0.793.

With GGUGACAACUGACCUCAACTT against Oog4, the z-score was inactive: 0.0857.

Regarding GGACAUUCUCAAAUCUUGATT against DXImx39e, the z-score is inactive: -0.706.

GGUGUUCCAUAUUCUGGACTT against Pvalb: the z-score was inactive: 0.717.

As to GGGCUCCUGGUUUAGUAAUTT against Zfp59, the z-score is inactive: 0.241.

Regarding GGAUGGCUACCGAAAAAAUTT against Eif3s8, the z-score is inactive: -2.11.

For GGAUCUCCUAAGUGUUCCCTT against AI415282, the z-score was inactive: 0.269.

For CCACUUUUAGCUAGAAGGATT against Gdf2, the z-score was inactive: -0.0563.

As to GGUCCUGAAGAACCUGUACTT against Myrip, the z-score is inactive: -0.582.

Turning to GGCUUUCUCACAUAAGAGCTT against Zfp297, the z-score was inactive: 0.779.

As to GGACAUCAGUUAUCACGCATT against Sh3rf2, the z-score is inactive: 0.713.

Consider “GGGAGUGUUAAAGAGAGUGTT against A330049M08Rik”, for which the z-score was inactive: -0.841.

Consider GCAGCCAUACAGCUUAUAUTT against Cyb561d2, for which the z-score was inactive: -2.21.

For the sequence “GGAACCAUCUUCAACCAACTT against 6820428D13”, the z-score is inactive: 0.24.

GGCAGAAACGUGGACUAAATT against Mmp12: the z-score is inactive: 1.76.

As for GGGACUUACAGAUUACAGUTT against Izumo1, the z-score is inactive: 0.281.

On to GGGAGGAACAAGUUGGACCTT against Npl, for which the z-score was inactive: -0.627.

GGGUCAAAUCUGACUGCAUTT against Tieg1: the z-score was inactive: 0.199.

As for “CGUAGAAACAGUGCAGCAGTT against C730048E16Rik”, the z-score is inactive: 2.37.

For GGUCUUACGUAAACCUGCCTT against Olfr959, the z-score is inactive: -0.307.

“GCGGUAUGAGAAGGUUCCATT against 5830461H18Rik”: the z-score was inactive: 0.101.

As for CGGUGGUCACUGUGAAAUGTT against Nr1h5, the z-score is inactive: -0.0299.

With “GGAAGAUGACAACUUAUCUTT against D930031B21Rik”, the z-score is inactive: -0.851.

For the sequence GCCUUUUAGGACAGACUCUTT against AU040320, the z-score is inactive: -1.66.

Turning to CCUUGGACCCGAUGUUCUUTT against Slc22a12, the z-score is inactive: -0.535.

In the case of GCUGCUCAAACAUAAUGAATT against Osbpl2, the z-score is inactive: 0.508.

Turning to GGAAGGCUAUACACACCUUTT against Crisp1, the z-score was inactive: 1.26.

With “GGAGAAAUUCAAACAAGUATT against 4930503B20Rik”, the z-score was inactive: 0.433.

As for “GGAUUUACCAAGUCUAUUGTT against C130022K22Rik”, the z-score is inactive: -0.274.

For GGUGUGUUUUGUAUUGAUUTT against Olfr843, the z-score was inactive: -0.196.

As to “GGCAGGAUCUUUACAUCUCTT against 4733401H21Rik”, the z-score is inactive: 0.396.

With GCAUACAACUGUUCAUAGATT against AI851076, the z-score was inactive: 0.249.

Take GGGUGUGUGCUAAUGAACUTT against Tcf2: the z-score was inactive: 2.14.

In the case of GGCUCAAGUUUGCCAGGAATT against Kcnq2, the z-score is inactive: -2.98.

Regarding CCUGUCUCCAAUUUUCCUGTT against Olfr1254, the z-score was inactive: 0.507.

For GCUCAUUCGAGAGGAGAACTT against Nurit, the z-score is inactive: -1.59.

With GGUAUUAGCAAUUUUCUGGTT against Olfr619, the z-score is inactive: -0.669.

In the case of GCCCAUAUCGGAGAAGAUUTT against Cap2, the z-score was inactive: -1.05.

For the sequence “GCUUCUAAGCUUUAGAGGGTT against 4632411J06Rik”, the z-score is inactive: -0.131.

In the case of GCACGAAAUCAGCAAUGAATT against Ever2, the z-score was inactive: -1.94.

With CUCGUUAAUCCUGUGAUAUTT against Olfr740, the z-score is inactive: 0.187.

With GCCAACCUCUGUGUGUAUUTT against Olfr1263, the z-score was inactive: 0.0351.

In the case of GGUUCACCUACCCAACAAUTT against Mrgpra4, the z-score is inactive: 1.33.

With CCUCACUGUGGUAACAUUATT against Olfr452, the z-score is inactive: -1.09.

As for CCAAAUCGUCGCCAUUAAGTT against Cdk7, the z-score was inactive: 0.0843.

As to CCCUAGUGAUAAGGAAUGCTT against Cxcl9, the z-score is inactive: -0.153.

Consider GUAUCGUUUGAGCAGAUCCTT against Cib1, for which the z-score is inactive: 0.862.

In the case of GGAAUUCACAGAAAUAAUGTT against Hmgcs2, the z-score was inactive: -0.267.

On to GGCAGGAAAACUGCCAAUGTT against LOC547347, for which the z-score was inactive: -0.166.

As to CCUGUAACCUUGCUUAAUGTT against Hoxc6, the z-score was inactive: 0.401.

For GGAUCUCUAUGCUAACAACTT against Acta2, the z-score was inactive: 0.00532.

Take GCUAUAGCGCGGAAAUGGATT against BC056929: the z-score is inactive: 0.969.

Regarding GCACCUAGAUUGAUUGCAGTT against Olfr1186, the z-score was inactive: -1.09.

Consider GCUGAUUGCCUCGGAGAAUTT against Shmt1, for which the z-score is inactive: 1.13.

Take GGAAGGUAUGGUACGAUGUTT against Rock1: the z-score is inactive: -0.397.

Turning to CGAAGCUCAACAGAUUCCUTT against Prlpf, the z-score was inactive: 0.0664.

In the case of GGCAAGUUCAAUAAAAUGUTT against Biklk, the z-score was inactive: 0.792.

As for “GGAUGCAUGUCAUGUUUACTT against E430012M05Rik”, the z-score was inactive: -1.62.

As to CCUGAUAGAAAAUCUCGACTT against Pld1, the z-score is inactive: -0.379.

As to GCAAGAGAAAUCCACGACUTT against Ncoa1, the z-score was inactive: 0.527.

GGUUUUCCACUCUUAUGGCTT against V1rb2: the z-score is inactive: -0.163.

For AAUGCAAACAAUGCAAAUGTT against Mt2, the z-score was inactive: 0.316.

Take “GGUCUUGGACCUCAGGAAGTT against 3110040N11Rik”: the z-score is inactive: 1.06.

As for GGAGAAAGUCAAGACCCUCTT against Jund1, the z-score is inactive: 0.286.
